Literature values as cited in US20100249030A1, “ANTI-MITOTIC AGENT AND AURORA KINASE INHIBITOR COMBINATION AS ANTI-CANCER TREATMENT” (Schering Corporation, priority 2007, published 2010).
At least one structure is not confirmed: it was looked up by name or label, or the drawing left a doubt.

Tested on: cells arrested with taxol, monastrol or nocodazole
Conditions: Hauf et al 2003, cited from earlier work

CCS(=O)(=O)Nc1ccc2c(c1)/C(=C(/Nc1ccc(CN3CCCCC3)cc1)c1ccccc1)C(=O)N2 [Hesperadin]
time to enter anaphase (cells arrested with taxol or monastrol): less than 1 hour
time cells stay arrested (cells in nocodazole): 3 to 5 h
